Laboratory results reported in publication PMC8406268.
These are yes or no findings as the source states them, for the method shown. Binding seen in cells or lysates may run through a third protein. Some entries that bind do so weakly or less than the wild type. Tags and fused reporters may be left off the sequences shown.

The chains behind the UniProt entries cited, without tags or fusion partners.
UniProt A5IV09: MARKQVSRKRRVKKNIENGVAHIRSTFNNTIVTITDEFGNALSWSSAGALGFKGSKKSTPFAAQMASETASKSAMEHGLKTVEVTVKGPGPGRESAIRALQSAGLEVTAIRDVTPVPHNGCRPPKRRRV

Target: T1, 3×FLAG-tagged S. aureus RNase R (S. aureus) (UniProt Q2G024)
T1 sequence (chain, methylated Q538 (found by LC-MS/MS of the immunoprecipitated protein)): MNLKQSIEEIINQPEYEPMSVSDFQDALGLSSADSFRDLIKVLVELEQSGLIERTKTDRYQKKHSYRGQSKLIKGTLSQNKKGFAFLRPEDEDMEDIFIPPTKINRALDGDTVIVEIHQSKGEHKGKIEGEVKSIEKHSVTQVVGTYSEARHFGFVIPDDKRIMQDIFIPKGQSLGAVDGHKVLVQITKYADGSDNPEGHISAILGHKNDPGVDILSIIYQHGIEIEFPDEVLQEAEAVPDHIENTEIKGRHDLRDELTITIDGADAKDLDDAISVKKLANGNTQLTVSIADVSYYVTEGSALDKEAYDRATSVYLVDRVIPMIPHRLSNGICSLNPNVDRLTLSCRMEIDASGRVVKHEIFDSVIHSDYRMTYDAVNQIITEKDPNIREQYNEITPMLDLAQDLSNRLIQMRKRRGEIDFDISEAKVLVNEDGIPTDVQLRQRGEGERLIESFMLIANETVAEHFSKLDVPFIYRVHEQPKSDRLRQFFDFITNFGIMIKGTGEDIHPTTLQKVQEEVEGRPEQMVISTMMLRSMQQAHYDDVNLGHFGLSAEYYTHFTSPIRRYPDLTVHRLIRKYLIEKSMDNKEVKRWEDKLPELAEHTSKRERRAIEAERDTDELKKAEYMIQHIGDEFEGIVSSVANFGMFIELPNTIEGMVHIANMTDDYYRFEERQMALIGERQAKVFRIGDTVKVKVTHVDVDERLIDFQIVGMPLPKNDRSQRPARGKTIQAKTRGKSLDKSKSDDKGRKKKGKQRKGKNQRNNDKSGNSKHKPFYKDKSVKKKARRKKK
Test: co-IP; eluate of the anti-FLAG M2 pulldown of 3×FLAG-Rnr from S. aureus lysate probed by Western blot with anti-S11; untagged control in parallel

binding: binds
Substance: 30S ribosomal protein S11 (from UniProt A5IV09 1-129)
